{"sequences": {"note": "Amino acid sequences for entries named in this document (tags omitted).", "UniProt Q70E73": "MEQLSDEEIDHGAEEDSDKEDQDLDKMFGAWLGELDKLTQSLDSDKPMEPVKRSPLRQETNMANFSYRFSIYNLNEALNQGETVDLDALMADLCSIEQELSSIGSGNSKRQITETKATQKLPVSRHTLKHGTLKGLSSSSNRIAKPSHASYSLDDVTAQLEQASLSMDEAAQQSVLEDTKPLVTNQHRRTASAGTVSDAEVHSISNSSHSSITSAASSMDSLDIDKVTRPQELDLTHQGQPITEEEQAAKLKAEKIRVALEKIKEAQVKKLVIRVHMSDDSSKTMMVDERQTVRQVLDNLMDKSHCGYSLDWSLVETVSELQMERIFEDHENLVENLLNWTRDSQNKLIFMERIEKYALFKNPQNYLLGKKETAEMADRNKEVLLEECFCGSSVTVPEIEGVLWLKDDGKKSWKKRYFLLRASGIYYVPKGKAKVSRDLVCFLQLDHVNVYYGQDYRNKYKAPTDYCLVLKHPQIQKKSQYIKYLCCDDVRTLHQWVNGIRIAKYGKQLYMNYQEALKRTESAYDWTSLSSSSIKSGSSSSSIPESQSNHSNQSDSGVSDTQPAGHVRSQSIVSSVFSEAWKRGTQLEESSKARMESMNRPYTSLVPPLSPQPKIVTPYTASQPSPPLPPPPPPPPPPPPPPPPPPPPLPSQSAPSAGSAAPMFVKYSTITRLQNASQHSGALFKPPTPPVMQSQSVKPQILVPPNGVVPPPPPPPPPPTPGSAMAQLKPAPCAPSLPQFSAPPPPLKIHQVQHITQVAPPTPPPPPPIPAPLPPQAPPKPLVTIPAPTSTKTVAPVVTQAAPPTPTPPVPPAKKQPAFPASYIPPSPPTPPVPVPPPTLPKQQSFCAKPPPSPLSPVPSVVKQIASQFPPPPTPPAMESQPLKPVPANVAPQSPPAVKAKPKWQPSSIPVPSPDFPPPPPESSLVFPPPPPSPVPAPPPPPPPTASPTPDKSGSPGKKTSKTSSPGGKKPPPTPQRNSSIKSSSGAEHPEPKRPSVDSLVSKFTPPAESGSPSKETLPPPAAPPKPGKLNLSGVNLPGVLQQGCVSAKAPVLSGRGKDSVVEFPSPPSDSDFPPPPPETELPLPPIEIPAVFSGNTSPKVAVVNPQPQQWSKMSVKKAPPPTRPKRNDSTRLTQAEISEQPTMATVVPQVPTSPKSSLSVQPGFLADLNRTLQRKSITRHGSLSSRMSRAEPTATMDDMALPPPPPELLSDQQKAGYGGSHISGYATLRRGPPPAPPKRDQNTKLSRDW"}, "source": "paper PMC2946563", "biological_target": "GST-Lpd (Lamellipodin), not phosphorylated by c-Abl (expressed without c-Abl or with kinase-inactive c-Abl) (UniProt Q70E73)", "assay": "pull-down; GST-Lpd co-transfected with tagged EVL, Mena or VASP and wild-type or kinase-inactive c-Abl in HEK293FT; GST buffer; glutathione beads; western blot with EVL, Mena or VASP antibodies (Figure 3A-C)", "note": "These are yes or no findings as the source states them, for the method shown. In cells and extracts the contact can be indirect. A result given as binding can be weak or reduced; the word gives no strength."}
{"substance": "Mena (tagged, transfected) (from UniProt Q03173-3)", "values": [{"measurement": "binding", "value": "binds"}]}
